{"sequences": {"note": "Chains of the proteins cited; added tags and fusions are not shown. A change or cut given only in a name is not applied to a line headed by its entry. Chains listed by the source or under a name are the forms on record and can include a tag or linker.", "UniProt Q04609": "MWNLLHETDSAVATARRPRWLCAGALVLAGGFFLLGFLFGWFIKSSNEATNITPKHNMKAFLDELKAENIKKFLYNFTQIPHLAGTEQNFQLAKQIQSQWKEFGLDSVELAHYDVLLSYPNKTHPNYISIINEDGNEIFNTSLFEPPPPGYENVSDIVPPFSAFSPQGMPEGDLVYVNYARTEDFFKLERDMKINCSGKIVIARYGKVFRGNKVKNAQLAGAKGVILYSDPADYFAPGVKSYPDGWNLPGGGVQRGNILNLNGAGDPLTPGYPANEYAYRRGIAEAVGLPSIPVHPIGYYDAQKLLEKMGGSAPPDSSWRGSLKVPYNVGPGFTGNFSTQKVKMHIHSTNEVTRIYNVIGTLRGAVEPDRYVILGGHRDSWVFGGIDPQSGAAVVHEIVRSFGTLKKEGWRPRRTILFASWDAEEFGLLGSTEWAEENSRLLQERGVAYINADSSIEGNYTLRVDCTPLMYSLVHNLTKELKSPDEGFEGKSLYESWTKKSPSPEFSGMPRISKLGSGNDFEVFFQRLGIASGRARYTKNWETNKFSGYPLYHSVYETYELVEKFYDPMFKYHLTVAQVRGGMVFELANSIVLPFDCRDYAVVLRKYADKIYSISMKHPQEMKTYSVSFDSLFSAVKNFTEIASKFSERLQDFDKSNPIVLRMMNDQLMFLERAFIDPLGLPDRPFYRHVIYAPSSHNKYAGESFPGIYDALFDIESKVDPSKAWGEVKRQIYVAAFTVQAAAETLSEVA", "HER2 (rHER2) (Rattus norvegicus), one chain, as listed by the source": "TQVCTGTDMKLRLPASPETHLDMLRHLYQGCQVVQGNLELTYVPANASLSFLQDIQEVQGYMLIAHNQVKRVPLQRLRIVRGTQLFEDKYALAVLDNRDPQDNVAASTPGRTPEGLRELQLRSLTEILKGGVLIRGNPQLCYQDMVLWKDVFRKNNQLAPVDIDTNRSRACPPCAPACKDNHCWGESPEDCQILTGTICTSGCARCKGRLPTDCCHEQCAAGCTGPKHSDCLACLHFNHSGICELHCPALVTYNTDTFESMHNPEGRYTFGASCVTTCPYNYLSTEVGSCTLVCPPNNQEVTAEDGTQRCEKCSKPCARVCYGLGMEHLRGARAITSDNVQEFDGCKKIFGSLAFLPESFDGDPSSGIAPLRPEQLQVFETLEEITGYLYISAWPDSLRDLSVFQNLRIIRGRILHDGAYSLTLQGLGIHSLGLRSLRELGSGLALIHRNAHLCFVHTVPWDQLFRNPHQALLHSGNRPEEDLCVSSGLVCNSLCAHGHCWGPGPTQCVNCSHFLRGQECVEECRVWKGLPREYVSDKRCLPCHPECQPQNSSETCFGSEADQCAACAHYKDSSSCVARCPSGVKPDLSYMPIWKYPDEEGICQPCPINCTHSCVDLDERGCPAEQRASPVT"}, "source": "patent US20140148503", "key": {"[1]": {"molecular_target": "PSMA (prostate specific membrane antigen) (Homo sapiens) (UniProt Q04609)", "test": "inhibition of the protein", "conditions": "2'-F pyrimidines"}, "[2]": {"molecular_target": "PSMA (prostate specific membrane antigen) (Homo sapiens) (UniProt Q04609)", "test": "activity in cells", "conditions": "2'-F pyrimidines, protein on the cell surface"}, "[3]": {"test_system": "HER2 (rHER2) (Rattus norvegicus)", "test": "SPR", "conditions": "2'-F pyrimidines, purified recombinant protein, label: 5'-biotin-spacer9-G"}, "[4]": {"conditions": "inhibition completely lost, purified recombinant protein, protein details: R&D Systems 4234-ZN-010, variant of A9g"}, "[5]": {"conditions": "no inhibition at 200 nM RNA, purified recombinant protein, protein details: R&D Systems 4234-ZN-010, variant of A9g"}, "[6]": {"conditions": "NAALADase inhibited as well as A9, 800 nM RNA, purified recombinant protein, protein details: R&D Systems 4234-ZN-010, variant of A9"}, "[7]": {"conditions": "inhibition abrogated, purified recombinant protein, protein details: R&D Systems 4234-ZN-010, variant of A9g"}, "[8]": {"conditions": "comparable to A9g, purified recombinant protein, protein details: R&D Systems 4234-ZN-010, variant of A9g"}}, "note": "No signal at the amounts used counts as a negative. For some assays here: A weaker result is weaker than the reference pair of the same experiment. For some assays here: For at least one entry, the source does not settle the construct or the ends of the probe."}
{"sequence": "GGGACCGAAAAAGACCUGACUUCUAUACUAAGUCUACGCUCCC [A9g.8 (U39C)]", "values": [{"measurement": "functional effect of the aptamer", "setting": "[1]; [4]", "result": "not active"}]}
{"sequence": "GGGGAAAAAGACCUGACUUCUAUACUAAGUCUACCCC [A9h]", "values": [{"measurement": "functional effect of the aptamer", "setting": "[1]; [5]", "result": "not active"}]}
{"sequence": "GGGCGGACCGAAAAAGACCUGACUUCUAUACUAAGUCUACGUUCCCAGCCC [A9f]", "values": [{"measurement": "functional effect of the aptamer", "setting": "[1]; [6]", "result": "active"}]}
{"sequence": "GGGAGGACGAUGCGGACCGAAAAAGACCUGACUUCUAUACUAAGUCUACGUUCCCAGACGACUCGCCCGA [A9]", "values": [{"measurement": "functional effect of the aptamer", "setting": "[1]; NAALADase inhibited, purified recombinant protein, protein details: gift of D. Spencer, Baylor College of Medicine, dose not given here", "result": "active"}, {"measurement": "functional effect of the aptamer", "setting": "[2]; internalization vs PC-3, qRT-PCR, protein details: 22Rv1 (1.7) prostate cancer cells, dose not given here", "result": "active"}]}
{"sequence": "GGGACCGAAAAAGACCUGGCUUCUAUACUAAGUCUACGUUCCC [A9g.6 5'-biotin]", "values": [{"measurement": "binding result", "setting": "[3]; no measurable binding, variant of A9g.6", "result": "no binding"}]}
{"sequence": "GGGACGAUGCGGACCGAAAAAGACCUGACUUCUAUACUAAGUCUACGUUCCCAGACGACCC [A9d]", "values": [{"measurement": "functional effect of the aptamer", "setting": "[1]; [6]", "result": "active"}]}
{"sequence": "GGGACCGAAAAAGACCUGACUUCUAUACUAAGUCUACGUUCCC [A9g]", "values": [{"measurement": "functional effect of the aptamer", "setting": "[2]; internalization, no loss vs A9, protein details: 22Rv1 (1.7) prostate cancer cells, variant of A9, dose not given here", "result": "active"}]}
{"sequence": "GGGACCGAAAAAGACCUGACUUCUAUACUAAGUCUACGUUCCC [A9g 5'-biotin]", "values": [{"measurement": "binding result", "setting": "[3]; no appreciable interaction, specificity control, variant of A9g", "result": "no binding"}]}
{"sequence": "GGGCCGAAAAAGACCUGACUUCUAUACUAAGUCUACGUCCC [A9L]", "values": [{"measurement": "functional effect of the aptamer", "setting": "[1]; equally effective as A9g, purified recombinant protein, protein details: R&D Systems 4234-ZN-010, variant of A9g", "result": "active"}, {"measurement": "functional effect of the aptamer", "setting": "[2]; internalization, no loss vs A9, protein details: 22Rv1 (1.7) prostate cancer cells, variant of A9g", "result": "active"}]}
{"sequence": "GGGACGAUGCGGACCGAAAAAGACCUGACUUCUAUACUAAGUCUACGUUCCCAGACGCCC [A9b]", "values": [{"measurement": "functional effect of the aptamer", "setting": "[1]; [6]", "result": "active"}]}
{"sequence": "GGGACCGAAAAAGACCUAGUCUACGUUCCC [A9j]", "values": [{"measurement": "functional effect of the aptamer", "setting": "[1]; [5]", "result": "not active"}]}
{"sequence": "GGGACCGAAAAAGACCUGGCUUCUAUACUAAGUCUACGUUCCC [A9g.6]", "values": [{"measurement": "functional effect of the aptamer", "setting": "[1]; [7]", "result": "not active"}, {"measurement": "functional effect of the aptamer", "setting": "[1]; no inhibition, protein in an extract, variant of A9g", "result": "not active"}, {"measurement": "functional effect of the aptamer", "setting": "[2]; no effect on migration or invasion, variant of A9g", "result": "not active"}, {"measurement": "functional effect of the aptamer", "setting": "[2]; no internalization, protein details: 22Rv1 (1.7) prostate cancer cells, variant of A9g", "result": "not active"}]}
{"sequence": "GGGACCGAAAAAGCCCUGACUUCUAUACUAAGGCUACGUUCCC [A9g.2]", "values": [{"measurement": "functional effect of the aptamer", "setting": "[1]; [8]", "result": "active"}]}
{"sequence": "GGGACCGAAAAAGACCUGACUUCUAUACUAAGUCUACGGUCCC [A9g.3 (U39G)]", "values": [{"measurement": "functional effect of the aptamer", "setting": "[1]; [7]", "result": "not active"}]}
{"sequence": "GGGACCGAAAAAGACCUGACUUCUAUACUAAGUCUACGUUCCC [A9g-IRDye800CW]", "values": [{"measurement": "functional effect of the aptamer", "setting": "[1]; inhibits to similar extent as A9g, purified recombinant protein, protein details: R&D Systems 4234-ZN-010, label: IRDye800CW, variant of A9g", "result": "active"}]}
{"sequence": "GGGACCGAAAAAGACCUGACUUCUAUACUAAGUCUACGAUCCC [A9g.7 (U39A)]", "values": [{"measurement": "functional effect of the aptamer", "setting": "[1]; [4]", "result": "not active"}]}
{"sequence": "GGGACCGAAAAAGGCCUGACUUCUAUACUAAGCCUACGUUCCC [A9g.1]", "values": [{"measurement": "functional effect of the aptamer", "setting": "[1]; [8]", "result": "active"}]}
{"sequence": "GGGAGGACGAUGCGGACCGAAAAAGACCUGACUUCUAUACUAAGUCUACGUUCCCAGACGACUCCC [A9a]", "values": [{"measurement": "functional effect of the aptamer", "setting": "[1]; [6]", "result": "active"}]}
{"sequence": "GGGAUGCGGACCGAAAAAGACCUGACUUCUAUACUAAGUCUACGUUCCCAGACCC [A9c]", "values": [{"measurement": "functional effect of the aptamer", "setting": "[1]; [6]", "result": "active"}]}
{"sequence": "GGGACCGAAAAAUACGUUCCC [A9k]", "values": [{"measurement": "functional effect of the aptamer", "setting": "[1]; [5]", "result": "not active"}]}
{"sequence": "GGGCGGACCGAAAAAGACCUGACUUCUAUACUAAGUCUACGUUCCCACC [A9e]", "values": [{"measurement": "functional effect of the aptamer", "setting": "[1]; [6]", "result": "active"}]}
{"sequence": "GGGCCUGACUUCUAUACUAAGCCC [A9i]", "values": [{"measurement": "functional effect of the aptamer", "setting": "[1]; [5]", "result": "not active"}]}
{"sequence": "GGGACCGAAAAAGACCUGACUUCUAUACUAGGUCUACGUUCCC [A9g.5]", "values": [{"measurement": "functional effect of the aptamer", "setting": "[1]; loss of inhibition, purified recombinant protein, protein details: R&D Systems 4234-ZN-010, variant of A9g", "result": "not active"}]}
{"sequence": "GGGACCGAAAAAGACCUGGCUUCUAUACUAAGUCUACGUUCCC [A9g.6-IRDye800CW]", "values": [{"measurement": "functional effect of the aptamer", "setting": "[1]; inhibits to a much lesser degree than A9g, purified recombinant protein, protein details: R&D Systems 4234-ZN-010, label: IRDye800CW, variant of A9g.6", "result": "less active"}]}
